Test results as given in the supplement of paper PMC10849652.
The other results are listed elsewhere or left out.

Sequences of proteins named here, by UniProt entry; tags and fusion partners are left off. A change or cut given only in a name is not applied to a line headed by its entry.
UniProt O95999: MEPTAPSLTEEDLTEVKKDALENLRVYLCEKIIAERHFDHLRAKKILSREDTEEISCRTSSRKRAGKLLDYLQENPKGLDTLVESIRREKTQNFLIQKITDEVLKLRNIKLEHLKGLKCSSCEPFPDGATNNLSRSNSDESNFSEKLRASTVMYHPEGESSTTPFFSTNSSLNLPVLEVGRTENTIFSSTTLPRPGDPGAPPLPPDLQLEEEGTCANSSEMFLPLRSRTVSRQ
UniProt Q7Z569: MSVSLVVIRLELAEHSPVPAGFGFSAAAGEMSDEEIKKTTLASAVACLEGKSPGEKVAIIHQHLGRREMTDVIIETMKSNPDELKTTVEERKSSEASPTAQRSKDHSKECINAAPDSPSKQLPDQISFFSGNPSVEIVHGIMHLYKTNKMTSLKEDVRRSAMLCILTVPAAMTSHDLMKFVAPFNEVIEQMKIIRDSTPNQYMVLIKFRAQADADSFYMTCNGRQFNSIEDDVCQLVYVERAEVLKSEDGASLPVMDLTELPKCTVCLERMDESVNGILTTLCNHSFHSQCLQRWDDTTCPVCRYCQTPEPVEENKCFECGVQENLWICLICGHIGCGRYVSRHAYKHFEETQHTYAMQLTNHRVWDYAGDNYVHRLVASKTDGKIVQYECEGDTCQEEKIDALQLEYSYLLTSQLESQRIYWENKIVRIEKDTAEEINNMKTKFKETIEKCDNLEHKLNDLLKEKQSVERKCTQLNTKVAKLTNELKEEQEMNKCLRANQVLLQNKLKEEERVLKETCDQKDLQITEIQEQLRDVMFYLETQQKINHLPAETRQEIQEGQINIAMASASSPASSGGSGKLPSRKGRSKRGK
UniProt Q15059, whole entry, looked up: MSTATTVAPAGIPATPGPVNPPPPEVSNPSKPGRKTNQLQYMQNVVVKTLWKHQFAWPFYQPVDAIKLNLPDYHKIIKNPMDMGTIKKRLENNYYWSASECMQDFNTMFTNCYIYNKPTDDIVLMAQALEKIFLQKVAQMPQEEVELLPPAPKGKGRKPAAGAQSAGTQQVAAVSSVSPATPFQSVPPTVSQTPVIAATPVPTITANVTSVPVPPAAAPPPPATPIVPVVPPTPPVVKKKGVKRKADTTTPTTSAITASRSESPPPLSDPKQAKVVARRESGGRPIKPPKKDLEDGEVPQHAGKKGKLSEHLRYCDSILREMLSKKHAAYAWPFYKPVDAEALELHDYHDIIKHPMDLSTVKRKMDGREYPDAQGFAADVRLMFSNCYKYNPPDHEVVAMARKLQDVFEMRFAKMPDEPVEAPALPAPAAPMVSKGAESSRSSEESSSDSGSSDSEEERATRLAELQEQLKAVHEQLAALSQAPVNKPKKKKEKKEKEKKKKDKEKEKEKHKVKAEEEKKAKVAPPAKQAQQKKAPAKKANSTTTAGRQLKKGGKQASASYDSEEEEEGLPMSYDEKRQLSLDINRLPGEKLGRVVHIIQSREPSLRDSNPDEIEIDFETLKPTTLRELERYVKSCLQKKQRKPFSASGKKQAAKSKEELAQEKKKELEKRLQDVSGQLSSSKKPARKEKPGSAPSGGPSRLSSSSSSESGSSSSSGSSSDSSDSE
UniProt Q9BXH1: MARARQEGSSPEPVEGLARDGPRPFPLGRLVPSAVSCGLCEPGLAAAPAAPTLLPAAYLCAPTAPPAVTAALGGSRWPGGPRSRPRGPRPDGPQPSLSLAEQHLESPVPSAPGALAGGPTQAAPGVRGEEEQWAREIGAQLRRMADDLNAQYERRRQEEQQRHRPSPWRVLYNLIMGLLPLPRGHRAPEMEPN
UniProt P38398, whole entry, looked up: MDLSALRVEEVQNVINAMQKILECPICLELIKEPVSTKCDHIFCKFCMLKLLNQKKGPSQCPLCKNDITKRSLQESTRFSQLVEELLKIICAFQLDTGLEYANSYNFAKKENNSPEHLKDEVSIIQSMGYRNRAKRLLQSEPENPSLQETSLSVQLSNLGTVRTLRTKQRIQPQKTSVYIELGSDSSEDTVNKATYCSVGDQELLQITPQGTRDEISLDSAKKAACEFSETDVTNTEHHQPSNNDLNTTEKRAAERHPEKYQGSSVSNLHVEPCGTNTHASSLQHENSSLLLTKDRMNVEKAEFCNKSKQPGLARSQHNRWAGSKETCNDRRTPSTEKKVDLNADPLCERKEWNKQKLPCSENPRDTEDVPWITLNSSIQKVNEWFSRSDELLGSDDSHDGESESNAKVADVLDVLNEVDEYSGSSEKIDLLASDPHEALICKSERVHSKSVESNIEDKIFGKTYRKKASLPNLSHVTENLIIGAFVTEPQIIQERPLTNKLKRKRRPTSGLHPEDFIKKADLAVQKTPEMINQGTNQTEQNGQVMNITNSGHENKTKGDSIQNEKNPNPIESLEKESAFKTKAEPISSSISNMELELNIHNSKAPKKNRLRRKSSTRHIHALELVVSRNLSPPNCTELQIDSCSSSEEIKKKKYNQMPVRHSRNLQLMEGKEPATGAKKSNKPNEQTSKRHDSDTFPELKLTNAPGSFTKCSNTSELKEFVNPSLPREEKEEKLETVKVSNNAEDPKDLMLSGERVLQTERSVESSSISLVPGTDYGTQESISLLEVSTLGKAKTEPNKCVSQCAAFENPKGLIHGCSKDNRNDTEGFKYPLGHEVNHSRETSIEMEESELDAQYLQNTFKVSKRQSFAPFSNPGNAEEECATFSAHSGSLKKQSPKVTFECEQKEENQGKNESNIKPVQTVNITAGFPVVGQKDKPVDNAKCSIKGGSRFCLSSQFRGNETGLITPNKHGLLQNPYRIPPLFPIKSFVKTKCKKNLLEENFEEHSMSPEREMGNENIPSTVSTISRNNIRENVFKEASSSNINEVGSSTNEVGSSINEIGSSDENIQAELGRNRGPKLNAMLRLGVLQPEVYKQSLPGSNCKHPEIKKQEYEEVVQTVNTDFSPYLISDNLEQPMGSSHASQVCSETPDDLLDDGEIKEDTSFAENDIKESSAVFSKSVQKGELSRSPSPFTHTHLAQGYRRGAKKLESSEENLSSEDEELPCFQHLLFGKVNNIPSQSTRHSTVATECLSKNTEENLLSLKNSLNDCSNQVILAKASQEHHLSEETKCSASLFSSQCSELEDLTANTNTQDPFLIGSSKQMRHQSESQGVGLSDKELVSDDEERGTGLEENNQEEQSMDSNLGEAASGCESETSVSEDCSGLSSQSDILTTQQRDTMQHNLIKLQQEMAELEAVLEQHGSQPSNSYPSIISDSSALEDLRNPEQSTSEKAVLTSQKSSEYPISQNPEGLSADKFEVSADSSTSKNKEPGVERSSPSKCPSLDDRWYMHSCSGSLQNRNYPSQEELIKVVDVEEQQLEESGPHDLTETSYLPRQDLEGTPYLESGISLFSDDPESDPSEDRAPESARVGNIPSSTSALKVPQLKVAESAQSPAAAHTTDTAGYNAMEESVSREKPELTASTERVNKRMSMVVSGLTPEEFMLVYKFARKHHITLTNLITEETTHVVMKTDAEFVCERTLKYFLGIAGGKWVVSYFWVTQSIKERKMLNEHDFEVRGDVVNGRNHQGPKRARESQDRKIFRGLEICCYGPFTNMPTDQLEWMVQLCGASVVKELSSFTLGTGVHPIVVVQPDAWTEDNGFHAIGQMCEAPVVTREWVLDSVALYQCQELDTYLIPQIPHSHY
UniProt Q9H6U6: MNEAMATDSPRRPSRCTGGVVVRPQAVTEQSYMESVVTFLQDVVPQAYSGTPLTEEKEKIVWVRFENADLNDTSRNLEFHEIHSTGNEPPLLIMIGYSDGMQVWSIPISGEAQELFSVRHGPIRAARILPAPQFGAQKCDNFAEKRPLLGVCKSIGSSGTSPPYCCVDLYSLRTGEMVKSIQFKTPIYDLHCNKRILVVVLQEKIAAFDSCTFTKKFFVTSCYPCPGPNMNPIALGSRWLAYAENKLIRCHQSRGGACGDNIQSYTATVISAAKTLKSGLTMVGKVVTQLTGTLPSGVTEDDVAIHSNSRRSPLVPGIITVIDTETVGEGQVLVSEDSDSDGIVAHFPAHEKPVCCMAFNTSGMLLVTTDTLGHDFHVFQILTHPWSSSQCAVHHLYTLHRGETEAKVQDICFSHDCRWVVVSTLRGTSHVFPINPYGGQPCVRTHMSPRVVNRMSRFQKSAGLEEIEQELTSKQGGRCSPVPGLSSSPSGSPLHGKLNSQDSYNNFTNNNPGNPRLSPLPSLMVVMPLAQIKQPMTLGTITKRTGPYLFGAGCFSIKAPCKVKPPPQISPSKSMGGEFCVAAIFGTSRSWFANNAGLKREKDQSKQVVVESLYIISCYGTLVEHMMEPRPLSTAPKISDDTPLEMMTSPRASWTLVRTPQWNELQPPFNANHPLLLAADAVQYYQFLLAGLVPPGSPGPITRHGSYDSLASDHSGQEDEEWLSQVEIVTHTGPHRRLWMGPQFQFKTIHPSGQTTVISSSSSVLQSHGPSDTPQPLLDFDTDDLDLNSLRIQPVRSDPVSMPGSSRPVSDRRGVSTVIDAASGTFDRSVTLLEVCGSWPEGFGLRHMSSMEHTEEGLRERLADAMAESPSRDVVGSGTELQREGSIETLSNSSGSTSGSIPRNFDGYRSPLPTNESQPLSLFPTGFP
UniProt O95861: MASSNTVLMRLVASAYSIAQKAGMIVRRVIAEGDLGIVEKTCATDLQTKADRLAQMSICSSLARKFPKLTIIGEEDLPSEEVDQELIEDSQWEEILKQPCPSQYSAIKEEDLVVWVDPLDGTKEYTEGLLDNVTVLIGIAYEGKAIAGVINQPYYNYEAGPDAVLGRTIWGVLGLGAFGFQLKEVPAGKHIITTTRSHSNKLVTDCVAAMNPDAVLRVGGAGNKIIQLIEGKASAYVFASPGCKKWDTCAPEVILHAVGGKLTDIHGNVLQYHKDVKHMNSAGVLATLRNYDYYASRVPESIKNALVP
UniProt Q12981: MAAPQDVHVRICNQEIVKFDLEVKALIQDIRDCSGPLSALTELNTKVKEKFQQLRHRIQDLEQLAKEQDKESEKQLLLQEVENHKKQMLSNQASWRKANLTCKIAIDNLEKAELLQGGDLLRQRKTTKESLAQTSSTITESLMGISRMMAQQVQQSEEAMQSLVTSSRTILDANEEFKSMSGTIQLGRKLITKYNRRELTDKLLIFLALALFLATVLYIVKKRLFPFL
UniProt Q9UIG0: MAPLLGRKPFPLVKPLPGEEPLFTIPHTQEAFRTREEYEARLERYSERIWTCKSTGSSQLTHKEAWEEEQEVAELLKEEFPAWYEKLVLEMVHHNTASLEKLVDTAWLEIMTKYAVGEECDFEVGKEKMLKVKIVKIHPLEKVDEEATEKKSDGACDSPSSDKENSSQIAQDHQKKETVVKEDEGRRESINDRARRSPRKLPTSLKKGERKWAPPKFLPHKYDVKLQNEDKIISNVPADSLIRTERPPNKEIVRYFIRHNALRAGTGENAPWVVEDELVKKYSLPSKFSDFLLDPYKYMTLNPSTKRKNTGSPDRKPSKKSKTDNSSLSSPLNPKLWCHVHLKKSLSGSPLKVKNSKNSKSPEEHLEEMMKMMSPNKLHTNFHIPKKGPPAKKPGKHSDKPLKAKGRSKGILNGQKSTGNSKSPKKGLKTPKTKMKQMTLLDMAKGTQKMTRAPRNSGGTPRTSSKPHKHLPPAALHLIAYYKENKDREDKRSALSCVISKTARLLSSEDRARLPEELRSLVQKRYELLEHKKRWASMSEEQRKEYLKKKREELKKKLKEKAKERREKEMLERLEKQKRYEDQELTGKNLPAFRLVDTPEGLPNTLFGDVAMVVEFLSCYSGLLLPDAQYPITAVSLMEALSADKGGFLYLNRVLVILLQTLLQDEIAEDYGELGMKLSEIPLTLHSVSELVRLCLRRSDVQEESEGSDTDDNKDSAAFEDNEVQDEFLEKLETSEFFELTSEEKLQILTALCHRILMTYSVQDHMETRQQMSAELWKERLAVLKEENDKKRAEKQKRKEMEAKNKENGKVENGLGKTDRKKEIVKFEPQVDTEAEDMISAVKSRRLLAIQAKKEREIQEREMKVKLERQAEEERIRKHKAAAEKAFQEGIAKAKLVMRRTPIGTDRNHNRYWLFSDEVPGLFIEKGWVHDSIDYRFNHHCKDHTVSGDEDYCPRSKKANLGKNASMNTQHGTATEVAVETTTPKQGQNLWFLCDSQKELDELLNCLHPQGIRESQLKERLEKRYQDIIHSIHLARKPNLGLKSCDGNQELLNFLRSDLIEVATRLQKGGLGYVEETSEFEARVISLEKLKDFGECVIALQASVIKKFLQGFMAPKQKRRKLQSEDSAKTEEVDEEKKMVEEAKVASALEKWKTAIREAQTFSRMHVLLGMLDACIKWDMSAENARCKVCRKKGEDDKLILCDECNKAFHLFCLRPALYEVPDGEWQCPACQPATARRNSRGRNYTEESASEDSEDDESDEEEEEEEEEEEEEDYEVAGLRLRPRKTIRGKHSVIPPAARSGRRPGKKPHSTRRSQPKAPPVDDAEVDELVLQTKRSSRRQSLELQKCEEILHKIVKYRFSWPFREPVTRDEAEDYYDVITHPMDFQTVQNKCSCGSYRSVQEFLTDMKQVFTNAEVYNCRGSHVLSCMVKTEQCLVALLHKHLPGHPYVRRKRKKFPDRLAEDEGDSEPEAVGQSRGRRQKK

Assays:
Test in all cases: log2 fold change, soluble protein after heating vs DMSO (PISA); higher = thermal stabilisation; K562 lysate, 10 uM; active = over 0.2 and 3.5 SD of the protein, either way, in both replicates (recomputed)
lapatinib = compound: CS(=O)(=O)CCNCc1ccc(-c2ccc3ncnc(Nc4ccc(OCc5cccc(F)c5)c(Cl)c4)c3c2)o1 [lapatinib]
Summary of the method: (§1)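 Quantification was by TMTpro 16plex LC-MS/MS with equalised channel sums, applied to the supernatant after 21,000xg for 90 min. Samples were crude K562 extract at 1 mg/mL protein in PBS pH 7.4 with 1 mM MgCl2, treated with 10 μM compound for 30 min, heated for 3 min across 48°C-58°C, pooled and brought to 0.5% NP-40 at 4°C. Values are log-two fold changes in thermal stability relative to solvent controls, from duplicates.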

pictilisib = compound: CS(=O)(=O)N1CCN(Cc2cc3nc(-c4cccc5[nH]ncc45)nc(N4CCOCC4)c3s2)CC1 [pictilisib]
Summary of the method: as §1

crizotinib = compound: C[C@@H](Oc1cc(-c2cnn(C3CCNCC3)c2)cnc1N)c1c(Cl)ccc(F)c1Cl [crizotinib]
Summary of the method: as §1

[1] = compound: C[C@H](C1=CC=C(C=C1)C(=O)NC2=C3C=CNC3=NC=C2)N
Summary of the method: as §1

duvelisib = compound: C[C@H](Nc1ncnc2nc[nH]c12)c1cc2cccc(Cl)c2c(=O)n1-c1ccccc1 [duvelisib]
Summary of the method: as §1

gandotinib = compound: Cc1cc(Nc2cc(CN3CCOCC3)c3nc(C)c(Cc4ccc(Cl)cc4F)n3n2)n[nH]1 [gandotinib]
Summary of the method: as §1

tozasertib = compound: Cc1cc(Nc2cc(N3CCN(C)CC3)nc(Sc3ccc(NC(=O)C4CC4)cc3)n2)n[nH]1 [tozasertib]
Summary of the method: as §1

doramapimod = compound: Cc1ccc(-n2nc(C(C)(C)C)cc2NC(=O)Nc2ccc(OCCN3CCOCC3)c3ccccc23)cc1 [doramapimod]
Summary of the method: as §1

bafetinib = compound: Cc1ccc(NC(=O)c2ccc(CN3CC[C@H](N(C)C)C3)c(C(F)(F)F)c2)cc1Nc1nccc(-c2cncnc2)n1 [bafetinib]
Summary of the method: as §1

[2] = compound: Cc1cccc(CC(=O)N2CCc3c2ccc(-c2cn(C)c4ncnc(N)c24)c3F)n1
Summary of the method: as §1

nilotinib = compound: Cc1cn(-c2cc(NC(=O)c3ccc(C)c(Nc4nccc(-c5cccnc5)n4)c3)cc(C(F)(F)F)c2)cn1 [nilotinib]
Summary of the method: as §1

[3] = compound: Cc1nc(Nc2n[nH]c3c2CN(C(=O)N[C@H](CN(C)C)c2ccccc2)C3(C)C)c2sccc2n1
Summary of the method: as §1

dasatinib = compound: Cc1nc(Nc2ncc(C(=O)Nc3c(C)cccc3Cl)s2)cc(N2CCN(CCO)CC2)n1 [dasatinib]
Summary of the method: as §1

[4] = compound: Cc1ncc(-c2ccnc(Nc3ccc(S(C)(=O)=O)cc3)n2)n1C(C)C
Summary of the method: as §1

[5] = compound: Cn1cc(-c2ccc3c(c2)CCN3C(=O)Cc2cccc(C(F)(F)F)c2)c2c(N)ncnc21
Summary of the method: as §1

quisinostat = compound: Cn1cc(CNCC2CCN(c3ncc(C(=O)NO)cn3)CC2)c2ccccc21 [quisinostat]
Summary of the method: as §1

tipifarnib = compound: Cn1cncc1[C@@](N)(c1ccc(Cl)cc1)c1ccc2c(c1)c(-c1cccc(Cl)c1)cc(=O)n2C [tipifarnib]
Summary of the method: as §1

[6] = compound: NC(=O)Nc1cc(-c2cccc(F)c2)sc1C(=O)N[C@H]1CCCNC1
Summary of the method: as §1

[7] = compound: NC(=O)c1cnc(N[C@@H]2CCCC[C@@H]2N)nc1Nc1cccc(-n2nccn2)c1
Summary of the method: as §1

[8] = compound: NC1(c2ccc(-c3nc4ccn5c(=O)[nH]nc5c4cc3-c3ccccc3)cc2)CCC1
Summary of the method: as §1

Measured: log2 fold change

BCAT2 (UniProt O15382)
inactive: lapatinib -0.009 | pictilisib -0.021 | crizotinib 0.028 | [1] -0.034 | duvelisib 0.019 | gandotinib 0.04 | tozasertib -0.031 | doramapimod -0.016 | bafetinib 0.062 | [2] -0.011 | nilotinib 0.004 | [3] 0.033 | dasatinib 0.013 | [4] 0.009 | [5] -0.013 | quisinostat 0.009 | tipifarnib -0.012 | [6] 0.013 | [7] -0.015 | [8] 0.014

BCL10 (UniProt O95999)
inactive: lapatinib 0.013 | pictilisib -0.008 | crizotinib 0.055 | [1] -0.009 | duvelisib -0.09 | gandotinib 0.045 | tozasertib 0.03 | doramapimod -0.033 | bafetinib -0.033 | [2] 0.024 | nilotinib 0.001 | [3] 0.02 | dasatinib 0.077 | [4] 0.005 | [5] -0.021 | quisinostat 0.005 | tipifarnib 0.012 | [6] -0.026 | [7] 0.038 | [8] 0.001

BRAP (UniProt Q7Z569)
inactive: lapatinib -0.008 | pictilisib 0.001 | crizotinib 0.007 | [1] -0.032 | duvelisib -0.044 | gandotinib 0.035 | tozasertib -0.014 | doramapimod 0.023 | bafetinib -0.011 | [2] 0.041 | nilotinib -0.008 | [3] 0 | dasatinib 0.005 | [4] 0.04 | [5] 0.015 | quisinostat -0.035 | tipifarnib -0.022 | [6] 0.023 | [7] -0.017 | [8] 0.01

BRD3 (UniProt Q15059)
active: [1] -0.333
inactive: lapatinib 0.014 | pictilisib 0.004 | crizotinib -0.022 | duvelisib 0.1 | gandotinib 0.147 | tozasertib 0.048 | doramapimod -0.074 | bafetinib -0.016 | [2] 0.154 | nilotinib -0.069 | [3] 0.074 | dasatinib -0.011 | [4] 0.025 | [5] -0.018 | quisinostat 0.013 | tipifarnib 0.013 | [6] 0.066 | [7] -0.024 | [8] -0.185

BORCS5 (UniProt Q969J3)
inactive: lapatinib 0.015 | pictilisib 0.096 | crizotinib -0.002 | [1] 0.037 | duvelisib 0.037 | gandotinib -0.038 | tozasertib 0.007 | doramapimod -0.011 | bafetinib -0.042 | [2] -0.006 | nilotinib 0.064 | [3] -0.021 | dasatinib -0.025 | [4] 0.082 | [5] -0.003 | quisinostat -0.017 | tipifarnib -0.061 | [6] -0.017 | [7] -0.029 | [8] -0.009

BCOR (UniProt Q6W2J9)
inactive: lapatinib -0.099 | pictilisib 0.085 | crizotinib -0.216 | [1] -0.362 | duvelisib 0.05 | gandotinib 0.152 | tozasertib 0.045 | doramapimod -0.058 | bafetinib -0.087 | [2] 0.369 | nilotinib -0.128 | [3] 0.114 | dasatinib -0.04 | [4] 0.033 | [5] 0.117 | quisinostat -0.327 | tipifarnib 0.072 | [6] 0.095 | [7] 0 | [8] 0

BTBD6 (UniProt Q96KE9)
inactive: lapatinib -0.149 | pictilisib 0.025 | crizotinib -0.342 | [1] -0.487 | duvelisib 0.1 | gandotinib 0.482 | tozasertib 0 | doramapimod -0.001 | bafetinib -0.08 | [2] 0.529 | nilotinib 0.073 | [3] -0.037 | dasatinib 0.054 | [4] 0.049 | [5] -0.07 | quisinostat -0.483 | tipifarnib -0.108 | [6] 0.09 | [7] 0.057 | [8] -0.233

2 consecutive records from above, for reference:
BRAP (UniProt Q7Z569)
inactive: lapatinib -0.008 | pictilisib 0.001 | crizotinib 0.007 | [1] -0.032 | duvelisib -0.044 | gandotinib 0.035 | tozasertib -0.014 | doramapimod 0.023 | bafetinib -0.011 | [2] 0.041 | nilotinib -0.008 | [3] 0 | dasatinib 0.005 | [4] 0.04 | [5] 0.015 | quisinostat -0.035 | tipifarnib -0.022 | [6] 0.023 | [7] -0.017 | [8] 0.01

BRD3 (UniProt Q15059)
active: [1] -0.333
inactive: lapatinib 0.014 | pictilisib 0.004 | crizotinib -0.022 | duvelisib 0.1 | gandotinib 0.147 | tozasertib 0.048 | doramapimod -0.074 | bafetinib -0.016 | [2] 0.154 | nilotinib -0.069 | [3] 0.074 | dasatinib -0.011 | [4] 0.025 | [5] -0.018 | quisinostat 0.013 | tipifarnib 0.013 | [6] 0.066 | [7] -0.024 | [8] -0.185

Following part.

BRD7 isoform 2 (UniProt Q9NPI1)
inactive: lapatinib 0.068 | pictilisib -0.08 | crizotinib -0.025 | [1] 0.132 | duvelisib 0.025 | gandotinib -0.18 | doramapimod -0.133 | bafetinib -0.004 | [2] -0.055 | nilotinib -0.112 | [3] -0.139 | dasatinib -0.018 | [4] 0.065 | [5] 0.148 | quisinostat -0.09 | tipifarnib -0.124 | [6] 0 | [7] -0.072 | [8] -0.022

BBC3 (UniProt Q9BXH1)
inactive: lapatinib -0.047 | pictilisib -0.022 | crizotinib -0.004 | [1] 0.146 | duvelisib 0.15 | gandotinib 0.01 | tozasertib 0.118 | doramapimod 0.053 | bafetinib -0.036 | [2] 0.039 | dasatinib 0.007 | [5] 0.005 | quisinostat 0.024 | [6] -0.078 | [7] 0.015 | [8] -0.158

BRCA1 isoform 7 (UniProt P38398)
inactive: lapatinib -0.152 | pictilisib -0.066 | crizotinib -0.119 | [1] 0.021 | duvelisib 0.003 | gandotinib -0.082 | tozasertib 0.012 | doramapimod 0.062 | bafetinib -0.016 | [2] 0.006 | nilotinib -0.11 | [3] 0.018 | dasatinib 0 | [4] 0.053 | [5] 0.014 | quisinostat -0.22 | tipifarnib -0.086 | [6] 0.02 | [7] -0.086 | [8] 0.05

BCAS3 isoform 8 (UniProt Q9H6U6)
inactive: lapatinib 0.033 | pictilisib 0.068 | crizotinib -0.034 | [1] -0.188 | duvelisib 0.024 | gandotinib 0.084 | tozasertib -0.23 | doramapimod 0.043 | bafetinib 0.114 | [2] 0.025 | dasatinib -0.039 | [5] -0.078 | quisinostat -0.022 | [6] 0.031 | [7] -0.054 | [8] 0.023

BORCS6 (UniProt Q96GS4)
inactive: lapatinib 0.014 | pictilisib 0.043 | crizotinib 0.008 | [1] -0.037 | duvelisib 0.096 | gandotinib -0.011 | tozasertib 0.075 | doramapimod -0.012 | bafetinib -0.076 | [2] 0.012 | nilotinib -0.004 | [3] 0.041 | dasatinib -0.01 | [4] -0.039 | [5] 0.007 | quisinostat -0.058 | tipifarnib -0.023 | [6] 0.027 | [7] -0.017 | [8] 0.015

BPNT1 (UniProt O95861)
inactive: lapatinib 0.003 | pictilisib -0.012 | crizotinib 0.004 | [1] -0.006 | duvelisib 0.004 | gandotinib 0.001 | tozasertib 0.017 | doramapimod 0.029 | bafetinib 0.049 | [2] -0.037 | nilotinib 0.012 | [3] -0.016 | dasatinib -0.009 | [4] 0.01 | [5] -0.023 | quisinostat 0.044 | tipifarnib 0.005 | [6] -0.065 | [7] 0.006 | [8] 0.026

BCL9L (UniProt Q86UU0)
inactive: lapatinib -0.014 | pictilisib -0.093 | crizotinib 0.069 | [1] -0.072 | duvelisib 0.011 | gandotinib 0.016 | doramapimod 0.05 | bafetinib -0.059 | [2] 0.035 | nilotinib 0.03 | [3] 0.006 | dasatinib -0.041 | [4] 0.039 | [5] 0.003 | quisinostat -0.081 | tipifarnib -0.059 | [6] -0.025 | [7] 0.042 | [8] -0.059

BNIP1 (UniProt Q12981)
inactive: lapatinib -0.007 | pictilisib 0.018 | crizotinib -0.062 | [1] 0.273 | duvelisib -0.059 | gandotinib -0.15 | tozasertib 0.017 | doramapimod 0.071 | bafetinib -0.019 | [2] -0.17 | nilotinib -0.004 | [3] -0.037 | dasatinib -0.005 | [4] -0.028 | [5] -0.045 | quisinostat -0.014 | tipifarnib -0.046 | [6] -0.034 | [7] -0.033 | [8] 0.057

BAZ1B (UniProt Q9UIG0)
inactive: lapatinib 0.029 | pictilisib -0.004 | crizotinib -0.026 | [1] -0.025 | duvelisib -0.016 | gandotinib -0.046 | tozasertib -0.04 | doramapimod 0.086 | bafetinib -0.009 | [2] 0.058 | nilotinib 0.063 | [3] -0.008 | dasatinib -0.084 | [4] 0.003 | [5] -0.022 | quisinostat -0.039 | tipifarnib -0.002 | [6] 0.002 | [7] -0.003 | [8] 0.024
